Source: PMC9613683

Protein sequences, listed by entry. Tags and fused reporters are not part of them. Residues count along the entry.
UniProt P78310, residues 20-365: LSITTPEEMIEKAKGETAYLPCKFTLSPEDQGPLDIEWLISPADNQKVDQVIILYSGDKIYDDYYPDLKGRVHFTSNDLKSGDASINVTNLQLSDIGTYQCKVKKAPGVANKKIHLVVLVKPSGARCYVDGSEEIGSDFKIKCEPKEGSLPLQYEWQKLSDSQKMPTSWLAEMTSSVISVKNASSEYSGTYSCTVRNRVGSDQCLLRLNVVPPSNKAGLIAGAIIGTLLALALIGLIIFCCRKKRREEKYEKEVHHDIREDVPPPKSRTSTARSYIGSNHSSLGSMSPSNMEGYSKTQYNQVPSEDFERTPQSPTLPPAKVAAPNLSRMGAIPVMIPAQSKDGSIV
UniProt Q15836: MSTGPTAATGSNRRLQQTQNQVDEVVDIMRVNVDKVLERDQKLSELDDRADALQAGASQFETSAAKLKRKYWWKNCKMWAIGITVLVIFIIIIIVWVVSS
UniProt P46937: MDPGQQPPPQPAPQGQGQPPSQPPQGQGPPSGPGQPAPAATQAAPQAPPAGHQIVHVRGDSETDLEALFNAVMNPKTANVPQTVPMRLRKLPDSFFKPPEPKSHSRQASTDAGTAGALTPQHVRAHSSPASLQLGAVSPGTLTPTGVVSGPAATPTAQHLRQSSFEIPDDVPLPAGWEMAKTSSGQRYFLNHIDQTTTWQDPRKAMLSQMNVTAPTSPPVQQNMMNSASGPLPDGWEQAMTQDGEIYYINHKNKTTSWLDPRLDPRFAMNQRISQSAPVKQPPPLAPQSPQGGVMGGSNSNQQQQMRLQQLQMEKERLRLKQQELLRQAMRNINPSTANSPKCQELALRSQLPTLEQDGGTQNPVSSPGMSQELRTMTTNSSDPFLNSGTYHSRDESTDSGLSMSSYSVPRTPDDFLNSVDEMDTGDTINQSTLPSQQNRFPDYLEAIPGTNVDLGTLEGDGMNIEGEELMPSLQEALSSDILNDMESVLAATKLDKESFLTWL
UniProt Q03135: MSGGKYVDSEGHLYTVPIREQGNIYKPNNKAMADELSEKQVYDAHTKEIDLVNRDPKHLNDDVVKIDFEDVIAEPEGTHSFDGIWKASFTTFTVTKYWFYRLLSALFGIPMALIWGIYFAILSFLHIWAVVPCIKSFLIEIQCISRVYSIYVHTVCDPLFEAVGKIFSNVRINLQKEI
UniProt Q9Y5X1: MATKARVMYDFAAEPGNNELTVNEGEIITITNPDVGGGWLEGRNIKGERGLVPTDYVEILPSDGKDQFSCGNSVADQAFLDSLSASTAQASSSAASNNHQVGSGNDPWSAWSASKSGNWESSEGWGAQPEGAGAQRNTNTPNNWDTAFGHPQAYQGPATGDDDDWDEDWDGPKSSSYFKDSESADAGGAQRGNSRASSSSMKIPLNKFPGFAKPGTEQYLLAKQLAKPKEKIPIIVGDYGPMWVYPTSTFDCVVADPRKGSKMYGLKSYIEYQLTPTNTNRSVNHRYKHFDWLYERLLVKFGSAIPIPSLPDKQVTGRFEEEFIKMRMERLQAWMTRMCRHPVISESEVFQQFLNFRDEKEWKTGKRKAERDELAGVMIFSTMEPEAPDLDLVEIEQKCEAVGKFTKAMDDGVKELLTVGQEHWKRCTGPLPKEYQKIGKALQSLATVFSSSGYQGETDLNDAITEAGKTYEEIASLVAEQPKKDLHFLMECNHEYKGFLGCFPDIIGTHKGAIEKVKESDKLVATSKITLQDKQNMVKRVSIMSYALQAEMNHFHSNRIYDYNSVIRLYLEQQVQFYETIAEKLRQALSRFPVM

B1: Rab23 (protein, UniProt Q9ULC3 1-237)
chain: MLEEDMEVAIKMVVVGNGAVGKSSMIQRYCKGIFTKDYKKTIGVDFLERQIQVNDEDVRLMLWDTAGQEEFDAITKAYYRGAQACVLVFSTTDRESFEAVSSWREKVVAEVGDIPTVLVQNKIDLLDDSCIKNEEAEALAKRLKLRFYRTSVKEDLNVNEVFKYLAEKYLQKLKQQIAEDPELTHSSSNKIGVFNTSGGSHSGQNSGTLNGGDVINLRPNKQRTKKNRNPFSSCSIP

Experiments:
[1] = molecular target: full-length CAR with a TurboID tag inserted between Lys285 and Ser286 (UniProt P78310); experiment: proximity labelling; BioID with CAR-TurboID (CAR-BirA) in 16HBE CAR CRISPR cells; 500 µM biotin for 15 min; streptavidin beads; LC-MS/MS; enrichment against control samples
[2] = molecular target: full-length CAR with a TurboID tag inserted between Lys285 and Ser286 (UniProt P78310); experiment: as above; remark: listed apart in the source

Molecule | binding [1] | binding [2]
VAMP-3 (from UniProt Q15836 1-100) | binds | –
YAP1 (from UniProt P46937 1-504) | binds | –
caveolin-1 (from UniProt Q03135 1-178) | binds | –
sorting nexin-9 (from UniProt Q9Y5X1 1-595) | binds | –
B1 | – | binds

Where two headings read alike, the source gives them in different places. No constants are given. Whether binding was seen depends on the method and setting. Binding seen in cells or lysates may run through a third protein. Here binding means that the protein was enriched with, or labelled near, the bait; the list need not be complete.
